Reference: article PMC6033098
Results are given in words; binding and its absence hold for the method and conditions named. Binding seen in cells or lysates may run through a third protein. Some results given as binding are weak or reduced against the parent protein; the word gives no strength.

Chains of the proteins cited; added tags and fusions are not shown. Residues count along the entry.
UniProt F1MVN9: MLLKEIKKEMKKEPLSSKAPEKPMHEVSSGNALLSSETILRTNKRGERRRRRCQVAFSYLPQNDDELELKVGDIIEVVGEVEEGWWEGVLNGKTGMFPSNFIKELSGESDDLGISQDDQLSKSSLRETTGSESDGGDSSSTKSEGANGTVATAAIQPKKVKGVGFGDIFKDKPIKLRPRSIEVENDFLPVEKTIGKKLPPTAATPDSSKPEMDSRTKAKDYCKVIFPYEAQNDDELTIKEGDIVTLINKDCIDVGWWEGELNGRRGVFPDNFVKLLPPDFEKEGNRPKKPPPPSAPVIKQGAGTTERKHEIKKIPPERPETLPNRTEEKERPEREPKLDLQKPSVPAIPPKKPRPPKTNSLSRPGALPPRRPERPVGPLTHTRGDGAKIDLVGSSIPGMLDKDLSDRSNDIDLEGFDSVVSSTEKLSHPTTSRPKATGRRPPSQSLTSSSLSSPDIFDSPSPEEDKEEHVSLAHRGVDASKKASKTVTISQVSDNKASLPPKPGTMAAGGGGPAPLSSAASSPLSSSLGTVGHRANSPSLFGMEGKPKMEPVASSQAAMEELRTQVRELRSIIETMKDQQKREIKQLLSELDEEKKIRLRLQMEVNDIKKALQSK
UniProt Q4U9M9, residues 20-873: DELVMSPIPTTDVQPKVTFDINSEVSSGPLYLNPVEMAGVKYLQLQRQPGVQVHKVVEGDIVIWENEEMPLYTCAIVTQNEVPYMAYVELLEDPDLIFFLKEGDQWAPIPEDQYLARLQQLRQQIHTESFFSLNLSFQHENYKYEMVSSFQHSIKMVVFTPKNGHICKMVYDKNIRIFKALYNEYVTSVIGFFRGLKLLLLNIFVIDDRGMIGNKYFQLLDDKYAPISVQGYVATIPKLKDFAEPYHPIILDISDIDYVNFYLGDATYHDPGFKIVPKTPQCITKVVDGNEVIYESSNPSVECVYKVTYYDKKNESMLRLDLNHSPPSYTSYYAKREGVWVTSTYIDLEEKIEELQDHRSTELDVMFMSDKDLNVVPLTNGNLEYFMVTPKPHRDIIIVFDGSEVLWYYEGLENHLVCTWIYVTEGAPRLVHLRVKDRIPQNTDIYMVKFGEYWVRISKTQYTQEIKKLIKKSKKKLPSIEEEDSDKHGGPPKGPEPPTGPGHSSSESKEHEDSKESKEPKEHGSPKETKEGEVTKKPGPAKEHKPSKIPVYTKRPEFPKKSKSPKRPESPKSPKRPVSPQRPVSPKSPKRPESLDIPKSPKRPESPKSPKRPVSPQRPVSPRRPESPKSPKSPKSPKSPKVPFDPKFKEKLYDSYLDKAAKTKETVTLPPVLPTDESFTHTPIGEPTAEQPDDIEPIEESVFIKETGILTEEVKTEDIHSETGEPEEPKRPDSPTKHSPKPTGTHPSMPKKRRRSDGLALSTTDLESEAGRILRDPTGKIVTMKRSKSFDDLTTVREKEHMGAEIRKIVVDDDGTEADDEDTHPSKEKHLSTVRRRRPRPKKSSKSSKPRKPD
UniProt E1BGU2: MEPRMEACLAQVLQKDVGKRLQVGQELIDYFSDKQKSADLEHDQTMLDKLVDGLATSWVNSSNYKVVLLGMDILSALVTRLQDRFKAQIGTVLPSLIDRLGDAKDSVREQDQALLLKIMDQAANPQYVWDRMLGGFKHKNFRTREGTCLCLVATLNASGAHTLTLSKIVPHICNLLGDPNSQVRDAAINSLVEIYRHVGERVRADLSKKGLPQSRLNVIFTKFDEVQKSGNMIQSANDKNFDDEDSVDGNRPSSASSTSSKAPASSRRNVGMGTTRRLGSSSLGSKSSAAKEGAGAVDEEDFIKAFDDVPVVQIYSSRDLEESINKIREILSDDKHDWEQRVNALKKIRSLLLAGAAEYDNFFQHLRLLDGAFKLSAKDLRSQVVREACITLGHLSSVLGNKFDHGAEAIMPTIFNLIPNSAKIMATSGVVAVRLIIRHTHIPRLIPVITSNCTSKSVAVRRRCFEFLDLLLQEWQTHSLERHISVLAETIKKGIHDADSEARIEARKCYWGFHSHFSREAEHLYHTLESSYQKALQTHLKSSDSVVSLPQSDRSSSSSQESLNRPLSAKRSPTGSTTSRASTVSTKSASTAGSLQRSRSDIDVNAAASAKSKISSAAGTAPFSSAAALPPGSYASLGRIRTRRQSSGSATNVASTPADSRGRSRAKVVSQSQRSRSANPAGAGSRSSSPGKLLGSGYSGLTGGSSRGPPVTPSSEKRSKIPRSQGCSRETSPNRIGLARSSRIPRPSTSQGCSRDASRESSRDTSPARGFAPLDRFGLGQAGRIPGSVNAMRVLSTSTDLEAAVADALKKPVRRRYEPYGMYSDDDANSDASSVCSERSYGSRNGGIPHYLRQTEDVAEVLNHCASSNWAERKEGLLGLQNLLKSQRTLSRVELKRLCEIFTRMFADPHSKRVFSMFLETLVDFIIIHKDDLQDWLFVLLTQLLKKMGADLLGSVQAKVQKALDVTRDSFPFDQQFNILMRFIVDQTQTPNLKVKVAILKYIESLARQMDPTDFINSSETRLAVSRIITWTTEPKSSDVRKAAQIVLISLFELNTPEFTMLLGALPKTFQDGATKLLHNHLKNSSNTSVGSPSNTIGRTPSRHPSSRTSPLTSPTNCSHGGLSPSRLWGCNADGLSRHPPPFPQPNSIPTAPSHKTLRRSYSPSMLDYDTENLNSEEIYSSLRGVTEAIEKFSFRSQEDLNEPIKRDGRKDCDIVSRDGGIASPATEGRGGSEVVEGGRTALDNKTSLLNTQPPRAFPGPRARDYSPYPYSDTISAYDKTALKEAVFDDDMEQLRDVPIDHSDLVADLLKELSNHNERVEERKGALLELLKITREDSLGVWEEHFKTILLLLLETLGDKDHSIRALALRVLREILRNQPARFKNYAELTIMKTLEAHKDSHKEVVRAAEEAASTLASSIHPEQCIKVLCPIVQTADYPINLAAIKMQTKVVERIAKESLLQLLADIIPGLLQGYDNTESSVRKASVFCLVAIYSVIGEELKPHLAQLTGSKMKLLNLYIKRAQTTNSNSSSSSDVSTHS

Experiments:
[1] = molecular target: SH3 domain‐containing kinase‐binding protein 1 (CIN85) (bovine (endogenous in TaC12)) (UniProt F1MVN9); assay: co-IP; endogenous TaMISHIP or CIN85 from TaC12 lysate (modified RIPA buffer) with rat antisera overnight at 4 °C, protein L Dynabeads 6 hr; controls rat IgG and anti‐TaMISHIP IP from BoMac lysate; Western blot
[2] = molecular target: T. annulata major schizont surface protein p104 (TA08425) (Theileria annulata) (UniProt Q4U9M9); assay: proximity ligation; Duolink in situ proximity ligation in fixed TaC12 cells with pairs of primary antibodies; signal when two proteins are less than 40 nm apart; negative controls BoMac cells and single primary antibodies

| Substance | binding [1] | binding [2] |
| --- | --- | --- |
| T. annulata major schizont surface protein p104 (TA08425) (from UniProt Q4U9M9 20-873) | no binding |  |
| CLASP1 (from UniProt E1BGU2 1-1540) |  | binds |
